Assay: Plasticizer proofness of colored image (polyvinyl chloride film contact)
Conditions: for Concentration of colored image, Remained %: after/before exposing; for Concentration of colored image, Remained % / Concentration of colored image, After exposing: PVC film contact, dark, 25° C., 10 days; for Concentration of colored image, Before exposing / Concentration of colored image, After exposing: color density; for Concentration of colored image, Before exposing: Macbeth RD-514, filter #106, before PVC film contact; for Concentration of colored image, After exposing: filter #106

| Compound | Concentration of colored image, Remained % [%] | Concentration of colored image, Before exposing | Concentration of colored image, After exposing |
| --- | --- | --- | --- |
| CC1(COc2ccc(S(=O)(=O)c3ccc(OCc4ccc(Cl)cc4)cc3)cc2)CO1 (stereo not drawn) [(4)] | 45 | 0.77 | 0.35 |
| C=CCOc1ccc(S(=O)(=O)c2ccc(OCC3CO3)cc2)cc1 (stereo not drawn) [(7)] | 60 | 0.89 | 0.56 |
| Cc1ccc(COc2ccc(S(=O)(=O)c3ccc(OCC4CO4)cc3)cc2)cc1 (stereo not drawn) [compound (5), 4-(4-methylbenzyloxy)-4'-glycidyloxydiphenylsulfone] | 64 | 0.88 | 0.56 |
| Cc1ccc(COc2ccc(S(=O)(=O)c3ccc(OCC4(C)CO4)cc3)cc2)cc1 (stereo not drawn) [(6)] | 65 | 0.83 | 0.53 |
| CC1(COc2ccc(S(=O)(=O)c3ccc(OCc4ccccc4)cc3)cc2)CO1 (stereo not drawn) [compound (1), 4-benzyloxy-4'-(2-methylglycidyloxy)diphenylsulfone] | 70 | 0.77 | 0.54 |
| CC1(COc2ccc(S(=O)(=O)c3ccc(OCc4ccccc4Cl)cc3)cc2)CO1 (stereo not drawn) [(3)] | 45 | 0.76 | 0.34 |
